These are yes or no findings as the source states them, for the method shown. Binding seen in cells or lysates may run through a third protein. Some entries that bind do so weakly or less than the wild type. For part of these data: Sequences can lack the tags named with a protein.
Assays:
[1] = target: T1, Arm (ectopically expressed in the Drosophila eye) (Drosophila melanogaster) (UniProt P18824); experiment: co-IP; heads of flies co-expressing Arm and GFP-dFoxO in the eye, homogenized in lysis buffer; protein G Sepharose beads, western blot; both directions
T1 sequence: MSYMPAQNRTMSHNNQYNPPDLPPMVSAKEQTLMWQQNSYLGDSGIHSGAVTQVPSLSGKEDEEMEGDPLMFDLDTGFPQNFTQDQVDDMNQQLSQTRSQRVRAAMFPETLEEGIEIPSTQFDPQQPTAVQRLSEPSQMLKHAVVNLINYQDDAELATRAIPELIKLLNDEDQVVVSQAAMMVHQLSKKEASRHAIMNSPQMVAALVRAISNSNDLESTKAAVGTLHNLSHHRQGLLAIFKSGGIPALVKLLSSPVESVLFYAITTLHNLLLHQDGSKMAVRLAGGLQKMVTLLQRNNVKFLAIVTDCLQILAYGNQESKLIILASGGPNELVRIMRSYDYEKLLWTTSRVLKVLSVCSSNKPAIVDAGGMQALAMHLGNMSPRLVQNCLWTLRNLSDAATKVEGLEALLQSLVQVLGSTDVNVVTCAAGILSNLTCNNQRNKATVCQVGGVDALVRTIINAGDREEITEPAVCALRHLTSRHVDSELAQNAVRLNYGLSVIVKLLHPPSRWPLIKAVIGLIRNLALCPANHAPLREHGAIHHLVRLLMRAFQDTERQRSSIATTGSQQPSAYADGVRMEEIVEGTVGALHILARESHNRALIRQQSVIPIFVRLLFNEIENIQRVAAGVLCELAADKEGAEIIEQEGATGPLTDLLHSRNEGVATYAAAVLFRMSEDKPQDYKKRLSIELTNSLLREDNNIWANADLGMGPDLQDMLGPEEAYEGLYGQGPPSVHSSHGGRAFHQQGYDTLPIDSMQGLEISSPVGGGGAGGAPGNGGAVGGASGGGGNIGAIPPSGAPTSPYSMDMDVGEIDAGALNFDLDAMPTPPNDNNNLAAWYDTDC

Amino acid sequences for entries named in this document (tags omitted).
UniProt Q95V55: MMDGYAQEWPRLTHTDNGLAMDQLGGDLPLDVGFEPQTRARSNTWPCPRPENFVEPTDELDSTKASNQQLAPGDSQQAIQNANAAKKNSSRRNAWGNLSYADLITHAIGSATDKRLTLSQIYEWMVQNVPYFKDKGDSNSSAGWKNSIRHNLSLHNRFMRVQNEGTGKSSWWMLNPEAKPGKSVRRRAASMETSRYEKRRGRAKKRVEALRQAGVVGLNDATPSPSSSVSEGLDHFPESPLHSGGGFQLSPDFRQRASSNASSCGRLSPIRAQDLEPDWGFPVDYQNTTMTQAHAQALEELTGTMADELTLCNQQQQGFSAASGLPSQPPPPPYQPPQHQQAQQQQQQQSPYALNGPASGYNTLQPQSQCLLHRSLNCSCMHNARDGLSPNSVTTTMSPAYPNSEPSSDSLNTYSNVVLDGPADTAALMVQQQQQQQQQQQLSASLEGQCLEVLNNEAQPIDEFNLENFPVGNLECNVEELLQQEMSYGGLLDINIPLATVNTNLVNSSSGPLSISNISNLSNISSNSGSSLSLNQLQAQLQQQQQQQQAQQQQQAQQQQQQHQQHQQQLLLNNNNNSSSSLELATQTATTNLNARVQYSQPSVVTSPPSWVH

[2] = target: T2, Myc-tagged Arm (Drosophila melanogaster) (UniProt P18824); experiment: co-IP; S2 cells co-transfected with Flag-dFoxO and Myc-Arm for 48 h; pre-cleared lysates, indicated antibodies, protein G Sepharose beads, western blot; both directions
T2 sequence: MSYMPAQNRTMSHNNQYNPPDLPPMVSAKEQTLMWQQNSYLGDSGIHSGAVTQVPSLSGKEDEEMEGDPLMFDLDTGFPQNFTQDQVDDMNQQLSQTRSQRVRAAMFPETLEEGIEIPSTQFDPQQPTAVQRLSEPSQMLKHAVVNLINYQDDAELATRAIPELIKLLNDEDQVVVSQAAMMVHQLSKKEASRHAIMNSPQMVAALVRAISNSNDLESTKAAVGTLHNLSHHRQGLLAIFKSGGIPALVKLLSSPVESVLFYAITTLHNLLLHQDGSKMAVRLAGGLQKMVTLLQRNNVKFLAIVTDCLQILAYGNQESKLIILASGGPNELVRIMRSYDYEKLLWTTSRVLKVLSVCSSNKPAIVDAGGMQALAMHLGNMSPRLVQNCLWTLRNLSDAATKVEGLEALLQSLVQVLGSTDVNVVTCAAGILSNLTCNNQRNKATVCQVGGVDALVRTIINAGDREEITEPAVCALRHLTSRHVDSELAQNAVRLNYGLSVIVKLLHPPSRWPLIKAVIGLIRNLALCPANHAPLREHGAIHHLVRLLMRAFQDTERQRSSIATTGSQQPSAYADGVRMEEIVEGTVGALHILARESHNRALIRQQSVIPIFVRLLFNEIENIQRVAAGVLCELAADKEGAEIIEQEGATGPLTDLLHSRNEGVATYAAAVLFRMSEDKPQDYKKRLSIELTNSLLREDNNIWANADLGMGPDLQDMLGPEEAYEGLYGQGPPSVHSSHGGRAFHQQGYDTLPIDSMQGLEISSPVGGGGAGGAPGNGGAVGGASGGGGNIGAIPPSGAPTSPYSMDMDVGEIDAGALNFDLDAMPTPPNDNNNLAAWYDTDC

[3] = target: Flag-tagged dFoxO (Drosophila melanogaster) (UniProt Q95V55); experiment: as above
[4] = target: Flag-tagged dFoxO (Drosophila melanogaster) (UniProt Q95V55); experiment: co-IP; S2 cells co-expressing Flag-dFoxO, Myc-Arm and HA-Pan; precipitation with an anti-Flag antibody, western blot
[5] = target: GFP-dFoxO (Drosophila melanogaster) (UniProt Q95V55); experiment: co-IP; heads of flies co-expressing Arm and GFP-dFoxO in the eye, homogenized in lysis buffer; protein G Sepharose beads, western blot; both directions

GFP-dFoxO (from UniProt Q95V55 1-613)
binding [1]: binds

Flag-tagged dFoxO (from UniProt Q95V55 1-613)
binding [2]: binds

B1: Myc-tagged Arm (protein, UniProt P18824 1-843)
chain: MSYMPAQNRTMSHNNQYNPPDLPPMVSAKEQTLMWQQNSYLGDSGIHSGAVTQVPSLSGKEDEEMEGDPLMFDLDTGFPQNFTQDQVDDMNQQLSQTRSQRVRAAMFPETLEEGIEIPSTQFDPQQPTAVQRLSEPSQMLKHAVVNLINYQDDAELATRAIPELIKLLNDEDQVVVSQAAMMVHQLSKKEASRHAIMNSPQMVAALVRAISNSNDLESTKAAVGTLHNLSHHRQGLLAIFKSGGIPALVKLLSSPVESVLFYAITTLHNLLLHQDGSKMAVRLAGGLQKMVTLLQRNNVKFLAIVTDCLQILAYGNQESKLIILASGGPNELVRIMRSYDYEKLLWTTSRVLKVLSVCSSNKPAIVDAGGMQALAMHLGNMSPRLVQNCLWTLRNLSDAATKVEGLEALLQSLVQVLGSTDVNVVTCAAGILSNLTCNNQRNKATVCQVGGVDALVRTIINAGDREEITEPAVCALRHLTSRHVDSELAQNAVRLNYGLSVIVKLLHPPSRWPLIKAVIGLIRNLALCPANHAPLREHGAIHHLVRLLMRAFQDTERQRSSIATTGSQQPSAYADGVRMEEIVEGTVGALHILARESHNRALIRQQSVIPIFVRLLFNEIENIQRVAAGVLCELAADKEGAEIIEQEGATGPLTDLLHSRNEGVATYAAAVLFRMSEDKPQDYKKRLSIELTNSLLREDNNIWANADLGMGPDLQDMLGPEEAYEGLYGQGPPSVHSSHGGRAFHQQGYDTLPIDSMQGLEISSPVGGGGAGGAPGNGGAVGGASGGGGNIGAIPPSGAPTSPYSMDMDVGEIDAGALNFDLDAMPTPPNDNNNLAAWYDTDC
binding [3]: binds | binding [4]: binds

B2: Arm (ectopically expressed in the Drosophila eye) (protein, UniProt P18824 1-843)
chain: MSYMPAQNRTMSHNNQYNPPDLPPMVSAKEQTLMWQQNSYLGDSGIHSGAVTQVPSLSGKEDEEMEGDPLMFDLDTGFPQNFTQDQVDDMNQQLSQTRSQRVRAAMFPETLEEGIEIPSTQFDPQQPTAVQRLSEPSQMLKHAVVNLINYQDDAELATRAIPELIKLLNDEDQVVVSQAAMMVHQLSKKEASRHAIMNSPQMVAALVRAISNSNDLESTKAAVGTLHNLSHHRQGLLAIFKSGGIPALVKLLSSPVESVLFYAITTLHNLLLHQDGSKMAVRLAGGLQKMVTLLQRNNVKFLAIVTDCLQILAYGNQESKLIILASGGPNELVRIMRSYDYEKLLWTTSRVLKVLSVCSSNKPAIVDAGGMQALAMHLGNMSPRLVQNCLWTLRNLSDAATKVEGLEALLQSLVQVLGSTDVNVVTCAAGILSNLTCNNQRNKATVCQVGGVDALVRTIINAGDREEITEPAVCALRHLTSRHVDSELAQNAVRLNYGLSVIVKLLHPPSRWPLIKAVIGLIRNLALCPANHAPLREHGAIHHLVRLLMRAFQDTERQRSSIATTGSQQPSAYADGVRMEEIVEGTVGALHILARESHNRALIRQQSVIPIFVRLLFNEIENIQRVAAGVLCELAADKEGAEIIEQEGATGPLTDLLHSRNEGVATYAAAVLFRMSEDKPQDYKKRLSIELTNSLLREDNNIWANADLGMGPDLQDMLGPEEAYEGLYGQGPPSVHSSHGGRAFHQQGYDTLPIDSMQGLEISSPVGGGGAGGAPGNGGAVGGASGGGGNIGAIPPSGAPTSPYSMDMDVGEIDAGALNFDLDAMPTPPNDNNNLAAWYDTDC
binding [5]: binds

B3: HA-Pan (protein, UniProt P91943 1-751)
chain: MPHTHSRHGSSGDDLCSTDEVKIFKDEGDREDEKISSENLLVEEKSSLIDLTESEEKGHKISRPDHSPVFNKLDTHAPSFNMGYLVSPYSYANGSPSGLPVTMANKIGLPPFFCHNADPLSTPPPAHCGIPPYQLDPKMGLTRPALYPFAGGQYPYPMLSSDMSQVASWHTPSVYSASSFRTPYPSSLPINTTLASDFPFRFSPSLLPSVHATSHHVINAHSAIVGVSSKQECGVQDPTTNNRYPRNLEAKHTSNAQSNESKETTNDKKKPHIKKPLNAFMLYMKEMRAKVVAECTLKESAAINQILGRRWHELSREEQSKYYEKARQERQLHMELYPGWSARDNYGYVSKKKKRKKDRSTTDSGGNNMKKCRARFGLDQQSQWCKPCRRKKKCIRYMEALNGNGPAEDGSCFDEHGSQLSDDDEDDYDDDKLGGSCGSADETNKIEDEDSESLNQSMPSPGCLSGLSSLQSPSTTMSLASPLNMNANSATNVIFPASSNALLIVGADQPTAQQRPTLVSTSGSSSGSTSSISTTPNTSSTVSPVTCMTGPCLGSSQERAMMLGNRFSHLGMGLSPPVVSTSTSKSEPFFKPHPTVCNNPIFALPSIGNCSLNISSMPNTSRNPIGANPRDINNPLSINQLTKRREYKNVELIEASESKTIVAHAATSIIQHVAVNGYHANHSLLNSNLGHLHHQLNNRTENPNRSEQTMLSVSNHSVNSSECHKESDSQAIVSSNPPNAGSSDNGVISVS
binding [4]: binds

From PMC4776236
